PubChem BioAssay AID1259326 – Drosophila RNAi Screening Center | 2017
Purpose: 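RNAi screen for genes modifying zinc chloride toxicity in fly cells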. Cell system: Drosophila S2R+ cells. Knock-down reagent: long dsRNA against Drosophila genes. Duration: about 5 days (4 days of RNAi, then 1 day of zinc). Challenge: zinc chloride added to 15 mM final for one day. Detection: 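Cellular ATP measured by luciferase light as a viable-cell proxy, after 4 days of RNAi and 1 day in 15 mM zinc chloride; replicate z-scores averaged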. Scale: averaged z-score: higher = more ATP than other wells, i.e. more surviving cells, after zinc; ATP luminescence: higher = more ATP, i.e. more surviving cells. Active means: 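Active if the averaged z-score exceeds 1.5 or falls under -1.5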.
This is one part, drawn at random, of 573 reagents tested. 39 of all reagents (6.8%) count as active. 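All actives have raised ATP, meaning more surviving cells; in these data active calls sit at averaged z-scores near 1.5 or above.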 The raw values are shown without normalisation. The record does not give: the amount of reagent.

no.	gene knocked down	dsRNA	averaged z-score	ATP luminescence, replicate 1	ATP luminescence, replicate 2	call
1	RabGGTb (Rab geranylgeranyltransferase subunit beta)	DRSC00804	0.448	87371	92964	inactive
2	RabGGTb (Rab geranylgeranyltransferase subunit beta)	DRSC29549	-0.204	87977	71985	inactive
3	RabGGTb (Rab geranylgeranyltransferase subunit beta)	DRSC41159	-0.306	64988	71093	inactive
4	Icmt (Isoprenylcysteine carboxyl methyltransferase)	DRSC09834	0.0696	98968	85205	inactive
5	Icmt (Isoprenylcysteine carboxyl methyltransferase)	DRSC39884	-0.0139	76903	79789	inactive
6	Icmt (Isoprenylcysteine carboxyl methyltransferase)	DRSC41166	0.178	78417	80956	inactive
7	l(3)80Fj (lethal (3) 80Fj)	DRSC20986	0.357	1.02e5	85467	inactive
8	l(3)80Fj (lethal (3) 80Fj)	DRSC38770	-0.0402	83472	70013	inactive
9	l(3)80Fj (lethal (3) 80Fj)	DRSC41175	-0.128	64670	80424	inactive
10	Pgm1 (Phosphoglucose mutase 1)	DRSC10490	0.0614	74541	71351	inactive
11	Pgm1 (Phosphoglucose mutase 1)	DRSC28517	-0.302	77251	72620	inactive
12	Pgm1 (Phosphoglucose mutase 1)	DRSC40453	-0.0892	83529	74455	inactive
13	Plod (procollagen lysyl hydroxylase)	DRSC10601	-0.368	93444	63942	inactive
14	Plod (procollagen lysyl hydroxylase)	DRSC10602	-0.249	73477	67342	inactive
15	Plod (procollagen lysyl hydroxylase)	DRSC41195	0.096	68058	81916	inactive
16	Atg4a (Autophagy-related 4a)	DRSC00656	-0.184	80630	62758	inactive
17	Atg4a (Autophagy-related 4a)	DRSC28580	-0.328	71722	64405	inactive
18	Atg4a (Autophagy-related 4a)	DRSC41153	-0.128	66857	75724	inactive
19	Mpi (Mannose phosphate isomerase)	DRSC16417	-0.0313	86290	1.01e5	inactive
20	Mpi (Mannose phosphate isomerase)	DRSC41202	-0.276	69464	68041	inactive
21	Rab3	DRSC07523	0.348	1.01e5	88350	inactive
22	Rab3	DRSC35976	-0.067	76957	70647	inactive
23	Rab3	DRSC41236	-0.0654	65333	74043	inactive
24	Atg2 (Autophagy-related 2)	DRSC08273	-0.0648	79704	69361	inactive
25	Atg2 (Autophagy-related 2)	DRSC40921	0.0773	71882	94233	inactive
26	Atg2 (Autophagy-related 2)	DRSC41152	0.16	72054	83437	inactive
27	Rpt6 (Regulatory particle triple-A ATPase 6)	DRSC20571	-0.205	92260	73717	inactive
28	Rpt6 (Regulatory particle triple-A ATPase 6)	DRSC27933	-0.259	76559	70733	inactive
29	Rpt6 (Regulatory particle triple-A ATPase 6)	DRSC32526	-0.384	62381	68332	inactive
30	Uvrag (UV-resistance associated gene)	DRSC02932	-0.179	87925	74266	inactive
31	Uvrag (UV-resistance associated gene)	DRSC32079	-0.285	81179	59552	inactive
32	Uvrag (UV-resistance associated gene)	DRSC32080	-0.337	65622	71968	inactive
33	Tao	DRSC19573	-0.0926	1.13e5	64319	inactive
34	Tao	DRSC28431	0.516	92274	79360	inactive
35	Tao	DRSC34597	0.182	67114	82796	inactive
36	eRF3 (eukaryotic translation release factor 3)	DRSC03322	1.9	1.40e5	1.11e5	active
37	eRF3 (eukaryotic translation release factor 3)	DRSC32119	-0.0377	89519	64919	inactive
38	eRF3 (eukaryotic translation release factor 3)	DRSC32120	1.55	96052	1.02e5	active
39	gish (gilgamesh)	DRSC16154	0.14	92878	82757	inactive
40	gish (gilgamesh)	DRSC34550	0.302	78760	92706	inactive
41	gish (gilgamesh)	DRSC40750	-0.858	54442	64336	inactive

Next part; the last 6 above are carried over.
no.	gene knocked down	dsRNA	averaged z-score	ATP luminescence, replicate 1	ATP luminescence, replicate 2	call
36	eRF3 (eukaryotic translation release factor 3)	DRSC03322	1.9	1.40e5	1.11e5	active
37	eRF3 (eukaryotic translation release factor 3)	DRSC32119	-0.0377	89519	64919	inactive
38	eRF3 (eukaryotic translation release factor 3)	DRSC32120	1.55	96052	1.02e5	active
39	gish (gilgamesh)	DRSC16154	0.14	92878	82757	inactive
40	gish (gilgamesh)	DRSC34550	0.302	78760	92706	inactive
41	gish (gilgamesh)	DRSC40750	-0.858	54442	64336	inactive
42	FANCI (Fanconi anemia complementation group I)	DRSC06416	-0.295	75090	84987	inactive
43	FANCI (Fanconi anemia complementation group I)	DRSC41171	-0.433	64415	63684	inactive
44	dre4	DRSC08714	1.93	1.34e5	1.19e5	active
45	dre4	DRSC33007	4.44	1.59e5	1.52e5	active
46	dre4	DRSC33008	3.53	1.63e5	1.20e5	active
47	Vang (Van Gogh)	DRSC07570	-0.199	95537	74815	inactive
48	Vang (Van Gogh)	DRSC39973	-0.297	79660	72671	inactive
49	Vang (Van Gogh)	DRSC41256	-0.281	69272	65159	inactive
50	CG6724	DRSC02983	0.597	94144	1.07e5	inactive
51	CG6724	DRSC41196	0.283	76067	79841	inactive
52	PolrMT (RNA polymerase mitochondrial)	DRSC00660	-0.11	91598	76119	inactive
53	PolrMT (RNA polymerase mitochondrial)	DRSC37478	0.0163	88949	56499	inactive
54	PolrMT (RNA polymerase mitochondrial)	DRSC41189	-0.4	66960	67827	inactive
55	betaggt-I (beta subunit of type I geranylgeranyl transferase)	DRSC03494	0.117	90287	82328	inactive
56	betaggt-I (beta subunit of type I geranylgeranyl transferase)	DRSC41158	0.0817	68504	79806	inactive
57	Pde6 (Phosphodiesterase 6)	DRSC16401	0.017	90356	73632	inactive
58	Pde6 (Phosphodiesterase 6)	DRSC16402	0.125	72345	84558	inactive
59	Pde6 (Phosphodiesterase 6)	DRSC16403	-0.101	67886	69906	inactive
60	galectin	DRSC00305	-0.355	80939	88263	inactive
61	galectin	DRSC41219	-0.678	41753	69958	inactive
62	Pdk1 (Phosphoinositide-dependent kinase 1)	DRSC27069	-0.117	91951	79383	inactive
63	Pdk1 (Phosphoinositide-dependent kinase 1)	DRSC30825	0.0423	89515	67132	inactive
64	Pdk1 (Phosphoinositide-dependent kinase 1)	DRSC30826	-0.169	66737	74764	inactive
65	GstO3 (Glutathione S transferase O3)	DRSC10710	0.288	89831	80994	inactive
66	GstO3 (Glutathione S transferase O3)	DRSC41197	-0.292	64388	75347	inactive
67	garz (gartenzwerg)	DRSC07193	0.446	1.03e5	89773	inactive
68	garz (gartenzwerg)	DRSC32127	0.292	79875	83597	inactive
69	garz (gartenzwerg)	DRSC32128	-0.192	71453	80081	inactive
